Laboratory results: PubChem BioAssay AID662 (National Center for Advancing Translational Sciences (NCATS), 2007)
“And” between values parts separate entries of the source, which are not always exact repeats. Equal values may be shown once. Some of the results follow. The main result of the screen is listed elsewhere. These columns were measured beside it and carry no call. Most of these compounds were active or inconclusive in the main read-out, so they are no random draw. The note in brackets gives the kind of curve behind each potency; many fits are weak.

Experiment: Cell signaling CRE-BLA (Fsk stim)
Conditions: CHO CRE-bla reporter (cAMP response element driving beta-lactamase), forskolin EC10, beta-lactamase ratio; measured here: 460 nm blue channel
Outline: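 Reporter-gene assay: CHO cells with beta-lactamase behind cAMP responsive elements, co-treated with compound and EC10 NKH 477 for 3 hours at 37 degrees Celsius. Activity came from the 460/530 nm CCF4 emission ratio.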
In the case of O=C(C(Cc1ccccc1)NS(=O)(=O)c1cccc2nsnc12)N1CCC2(CC1)OCCO2 (stereo not given), the AC50 is reported as 7.94 µM [falling, partial curve, poor fit]. For CN1CCc2cc3c(cc2[C@@H]1O)OCO3, the AC50 was 10 µM [rising, partial curve]. In the case of C=CCN1CC[C@@]23c4c5ccc(O)c4O[C@H]2/C(=N\N=C2/CC[C@@]4(O)[C@H]6Cc7ccc(O)c8c7[C@@]4(CCN6CC=C)[C@@H]2O8)CC[C@]3(O)[C@@H]1C5, the AC50 is reported as 31.6 µM [falling, single point]. With Cc1nc2cc(C(F)(F)F)ccc2n1C1CCN(Cc2nnnn2Cc2ccc3c(c2)OCO3)CC1 the AC50 was 25.1 µM [falling, single point]. For CC(c1ccc(F)cc1)n1cc(C(=O)NCc2ccc3c(c2)OCO3)nn1 (stereo not given), the AC50 was 1.58 µM [falling, partial curve]. In the case of COc1cc2c(cc1O)[C@H]1Cc3ccc(OC)c(O)c3CN1CC2, the AC50 is reported as 12.6 µM [rising, single point]. With Cc1cc(C)c(C(=O)CN2CCOCC2)c(C)c1 the AC50 was 25.1 µM [rising, single point]. In the case of COC(=O)C(C)Oc1cc(C)cc2oc(=O)c3c(c12)CCC3 (stereo not given), the AC50 is reported as 5.01 µM [rising, partial curve]. With Cc1cccnc1-n1c(CN2C(=O)c3ccccc3C2=O)nc2ccccc2c1=O the AC50 was 0.251 µM [falling, full curve, poor fit]. In the case of CCOC(=O)c1cncn1C(C)c1ccccc1 (stereo not given), the AC50 is reported as 15.8 µM [falling, single point]. In the case of Cc1noc(C)c1C(=O)N1CCC2(CCCN(CC(C)C)C2)CC1, the AC50 is reported as 12.6 µM [rising, partial curve]. For COc1ccc2c(c1OC)C(=O)O[C@H]2[C@H]1c2cc3c(cc2CCN1C)OCO3, the AC50 was 10 µM [rising, partial curve, poor fit]. In the case of CN1C(=O)c2ccccc2Sc2ccc(C(=O)N3CCC4(CC3)OCCO4)cc21, the AC50 is reported as 25.1 µM [falling, single point]. In the case of C(=NC12CN3CN(CN(C3)C1)C2)c1cccnc1, the AC50 is reported as 0.0158 µM [falling, full curve, poor fit]. In the case of O=C(c1cc2cc3ccc(Cl)cc3nc2o1)N1CCC2(CC1)OCCO2, the AC50 is reported as 0.631 µM [rising, full curve]. In the case of CC(C)(C)c1cc(C=C(C#N)C#N)cc(C(C)(C)C)c1O, the AC50 is reported as 1 µM [falling, full curve]. In the case of CCn1nc(-c2ccccc2)nc2c(=O)n(C)c(=O)nc1-2, the AC50 is reported as 3.16 µM [falling, full curve]. For COCCNC(=O)c1c(NC(=O)c2ccco2)n(Cc2ccccc2)c2nc3ccccc3nc12, the AC50 was 1 µM [rising, full curve]. For C[C@@H]1C[C@@H]([C@H](O)CC2CC(=O)NC(=O)C2)C(=O)[C@@H](C)C1, the AC50 was 0.794 µM [falling, full curve]. For Cc1cc(Br)ccc1N1C(=O)CC(=O)NC1=O, the AC50 was 0.00631 µM [falling, full curve]. For c1cncc([C@@H]2CCCCN2)c1, the AC50 was 20 µM [falling, partial curve, poor fit]. In the case of CCOC(=O)c1c(C)n(COCCO)c2ccc(O)cc12, the AC50 is reported as 3.98 µM [falling, single point]. For O=P1(NCc2ccco2)COc2ccccc2OC1, the AC50 was 0.0794 µM [falling, full curve, poor fit]. For O=c1c2ccccc2nc(-c2ccco2)n1-c1ccc(Br)cn1, the AC50 was 3.98 µM [rising, single point]. With CC[C@H](CO)NC(=O)[C@H]1C=C2c3cccc4[nH]cc(c34)C[C@H]2N(C)C1 the AC50 was 2 µM [falling, partial curve, poor fit]. For Oc1ccc2[nH]cc(CCCCN3CC=C(c4ccccc4)CC3)c2c1, the AC50 was 25.1 µM [falling, single point]. For CC(C)(C)[C@@]1(O)C[C@@H]2OC(=O)C[C@@]23C(=O)O[C@H]2OC(=O)[C@@H](O)[C@]231, the AC50 was 31.6 µM [falling, single point]. With Oc1c(Cl)c(Cl)cc(Cl)c1Cl the AC50 was 1 µM [rising, full curve, poor fit]. In the case of Clc1ccc(C(c2ccc(Cl)cc2)C(Cl)Cl)cc1, the AC50 is reported as 15.8 µM [falling, partial curve]. With CN(C=O)CP(=O)(O)CN(C)C=O the AC50 was 10 µM [rising, partial curve]. With COc1ccc(CN2C(=O)CC(=O)NC2=O)cc1 the AC50 was 12.6 µM [falling, single point]. In the case of Cc1cc([P+](=O)O)c(C)n1-c1ccc(Br)cc1, the AC50 is reported as 0.1 µM [falling, full curve]. In the case of CC(C)(O)[C@H]1[C@H]2OC(=O)[C@@H]1[C@]1(O)C[C@H]3O[C@]34C(=O)O[C@H]2[C@]14C, the AC50 is reported as 25.1 µM [falling, single point]. For O[C@@H]1[C@H](O)[C@H]2[C@@H](O)CCN2C[C@@H]1O, the AC50 was 15.8 µM [falling, partial curve, poor fit]. With OC(COCc1ccc(Cl)cc1)CN1CC=C(c2ccccc2)CC1 (stereo not given) the AC50 was 3.98 µM [falling, single point]. With ClC(Cl)=C(c1ccc(Cl)cc1)c1ccc(Cl)cc1 the AC50 was 7.94 µM [rising, partial curve, poor fit] and 12.6 µM [rising, partial curve, poor fit]. With O=C(O)C1=CCCN(CCOC(c2ccc(C(F)(F)F)cc2)c2ccc(C(F)(F)F)cc2)C1 the AC50 was 25.1 µM [falling, partial curve, poor fit]. In the case of O=C(CCl)c1ccc(Cl)cc1Cl, the AC50 is reported as 7.94 µM [falling, partial curve, poor fit]. With CN[C@@H](C)[C@@H](O)c1ccccc1 the AC50 was 25.1 µM [falling, partial curve]. For CCN(CC)C(=O)N[C@@H]1C=C2c3cccc4[nH]cc(c34)C[C@@H]2N(C)C1, the AC50 was 12.6 µM [rising, single point]. With CCC1(c2ccccc2)C(=O)N(COC)C(=O)N(COC)C1=O the AC50 was 0.316 µM [rising, full curve]. For O=C1/C(=C\c2ccccc2)C[C@@]2(O)[C@H]3Cc4ccc(O)c5c4[C@@]2(CCN3CC2CC2)[C@@H]1O5, the AC50 was 15.8 µM [falling, partial curve, poor fit]. In the case of CCCCCC[C@H]1C(=O)O[C@@H](C)[C@H](NC(=O)c2cccc(NC=O)c2O)C(=O)O[C@@H](C)[C@@H]1OC(=O)CC(C)C, the AC50 is reported as 25.1 µM [falling, partial curve, poor fit]. With C[C@]12CC[C@H](O)C[C@@H]1CC[C@H]1[C@H]2CC[C@]2(C)C(=O)CC[C@@H]12 the AC50 was 10 µM [rising, single point]. In the case of O=C(CN1CCN(Cc2ccc(Cl)cc2)C1=O)N1CCC2(CC1)OCCO2, the AC50 is reported as 15.8 µM [rising, single point]. For CCCNc1oc(-c2cccc3ccccc23)nc1C#N, the AC50 was 25.1 µM [rising, partial curve]. For C[C@H](N)Cc1c[nH]c2ccc(O)cc12, the AC50 was 12.6 µM [falling, partial curve, poor fit]. In the case of CC(Oc1ccc(-c2ccccc2)cc1)C(=O)O (stereo not given), the AC50 is reported as 0.794 µM [falling, full curve]. With Cc1ccc2c(c1)CC1(CN2C)C(=O)NC(=O)N(c2cc(C)ccc2C)C1=O (stereo not given) the AC50 was 12.6 µM [falling, partial curve]. For CCn1c(=O)cc(OCC(=O)N2CCN(Cc3ccc4c(c3)OCO4)CC2)c2ccccc21, the AC50 was 7.94 µM [rising, partial curve]. In the case of N=C(N)c1c(O)n(C2CCCCC2)c(=O)n(C2CCCCC2)c1=O, the AC50 is reported as 25.1 µM [falling, single point]. With O=C(Oc1ccccc1)N1CCC2(CCCN(Cc3nccs3)C2)CC1 the AC50 was 5.01 µM [falling, single point]. For CN1CC[C@@]2(c3cccc(O)c3)Cc3nc4ccccc4cc3C[C@H]2C1, the AC50 was 31.6 µM [falling, single point]. In the case of O/N=C/c1c[nH]c2ccccc12, the AC50 is reported as 7.94 µM [falling, partial curve]. For COc1cc2ccccc2c2cc([N+](=O)[O-])oc12, the AC50 was 1.26 µM [rising, partial curve]. For Oc1cc2c(cc1O)[C@H]1c3ccccc3CN[C@H]1CC2, the AC50 was 31.6 µM [falling, single point]. For CC1CCC(C(=O)NC(C(=O)N2CCC3(CC2)OCCO3)C(C)C)CC1 (stereo not given), the AC50 was 2 µM [falling, partial curve, poor fit]. In the case of COc1cc2[nH]c(=O)n(-c3ccccc3)c(=O)c2cc1OC, the AC50 is reported as 0.398 µM [rising, full curve, poor fit]. For CC(C)OC(=O)c1c(N)n(CC2CCCO2)c2nc3ccccc3nc12 (stereo not given), the AC50 was 10 µM [rising, partial curve]. For Cc1sc2ncn(CC(=O)N3CCC4(CC3)OCCO4)c(=O)c2c1C, the AC50 was 0.00398 µM [falling, full curve, poor fit]. In the case of CC1(C)CN=C(Nc2ccccc2C(F)(F)F)S1, the AC50 is reported as 10 µM [rising, partial curve]. With [Cl-].[Cl-].[Hg+2] the AC50 was 1.26 µM [falling, full curve]. For O=c1ccc2cc(O[C@H]3O[C@@H](CO)[C@@H](O)[C@@H](O)[C@@H]3O)c(O)cc2o1, the AC50 was 10 µM [rising, partial curve]. With CC[C@]1(OC(=O)CN)C(=O)OCc2c1cc1n(c2=O)Cc2cc3ccccc3nc2-1 the AC50 was 0.0631 µM [rising, full curve]. In the case of C(#CCN1CCCC1)CN1CCCC1, the AC50 is reported as 5.01 µM [rising, single point].
